# Source: the supplement of paper PMC12067093, “Discovery and optimisation of a covalent ligand for TRIM25 and its application to targeted protein ubiquitination” (Chemical Science, 2025)
# By UniProt entry, the sequences of proteins in these tests, tags left out. Where a name states a change or a piece, a line headed by the entry shows the natural chain unless it says otherwise.
# UniProt Q7Z7L1: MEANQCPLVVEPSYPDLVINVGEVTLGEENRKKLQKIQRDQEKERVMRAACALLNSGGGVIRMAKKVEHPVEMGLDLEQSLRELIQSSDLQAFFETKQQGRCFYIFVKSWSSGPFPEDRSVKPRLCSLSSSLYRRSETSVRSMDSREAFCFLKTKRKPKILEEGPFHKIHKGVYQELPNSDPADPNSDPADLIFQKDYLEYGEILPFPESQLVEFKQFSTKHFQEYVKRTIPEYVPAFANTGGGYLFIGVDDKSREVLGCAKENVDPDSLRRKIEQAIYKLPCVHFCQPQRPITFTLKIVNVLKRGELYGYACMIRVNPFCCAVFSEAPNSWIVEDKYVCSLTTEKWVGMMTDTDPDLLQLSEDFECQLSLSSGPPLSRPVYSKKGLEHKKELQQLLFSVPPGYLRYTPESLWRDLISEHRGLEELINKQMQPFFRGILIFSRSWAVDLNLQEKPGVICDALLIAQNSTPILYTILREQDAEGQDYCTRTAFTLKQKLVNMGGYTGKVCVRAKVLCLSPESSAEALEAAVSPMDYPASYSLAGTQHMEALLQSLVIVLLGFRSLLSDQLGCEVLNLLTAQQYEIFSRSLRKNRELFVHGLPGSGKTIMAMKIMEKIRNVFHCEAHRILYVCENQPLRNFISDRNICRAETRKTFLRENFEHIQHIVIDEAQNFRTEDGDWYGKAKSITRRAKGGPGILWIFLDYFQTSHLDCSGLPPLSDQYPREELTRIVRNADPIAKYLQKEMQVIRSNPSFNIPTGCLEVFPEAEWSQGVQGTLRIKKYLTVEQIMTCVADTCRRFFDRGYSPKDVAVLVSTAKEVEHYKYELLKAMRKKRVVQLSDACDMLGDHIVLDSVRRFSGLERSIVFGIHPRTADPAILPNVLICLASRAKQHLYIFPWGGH
# This is one part of the list.
# Assays:
# Assay in all cases: probe-labelled cysteine peptide fold change vs DMSO (competition) (log2 fold change); higher = less target engagement (more negative = stronger competition)
# Settings in all cases: THP-1, incubation time: 4 h
# [1] = biological target: SLFN11_Q7Z7L1_842_VVQLSDACDMLGDHIVLDSVR (UniProt Q7Z7L1)
# [2] = biological target: SLFN11_Q7Z7L1_842_VVQLSDACDMLGDHIVLDSVRR (UniProt Q7Z7L1)
# [3] = biological target: SLTM_Q9NWH9_107_DCELENQEAHEQDGNDELK (UniProt Q9NWH9)
# [4] = biological target: SLTM_Q9NWH9_107_DCELENQEAHEQDGNDELKDSEEFGENEEENVHSK (UniProt Q9NWH9)
# [5] = biological target: SLTM_Q9NWH9_107_KHEADELSGDASVEDDAFIKDCELENQEAHEQDGNDELK (UniProt Q9NWH9)
# SLTM_Q9NWH9_441_CIAHLHR = SLTM_Q9NWH9_441_CIAHLHR (UniProt Q9NWH9)
# 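Further: competitive chemoproteomic profiling in live THP-1 cells with an iodoacetamide desthiobiotin (IA-DTB) probe, comparing probe-labelled peptide intensities in compound-treated cells against DMSO-treated controls.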
structure (smiles),measurement,setting,value
CC1Cc2ccccc2N1C(=O)C1CCCN(C(=O)CCl)C1 (mixture of isomers) [TRIM25 ligand 11 (diastereomer mixture)],probe-labelled cysteine peptide fold change,[1]; 10 µM,-0.0658
same,probe-labelled cysteine peptide fold change,[1]; 50 µM,0.0793
same,probe-labelled cysteine peptide fold change,[2]; 10 µM,0.174
same,probe-labelled cysteine peptide fold change,[2]; 50 µM,0.0323
same,probe-labelled cysteine peptide fold change,[3]; 10 µM,0.104
same,probe-labelled cysteine peptide fold change,[3]; 50 µM,-0.0476
same,probe-labelled cysteine peptide fold change,[4]; 10 µM,-0.103
same,probe-labelled cysteine peptide fold change,[4]; 50 µM,-0.075
same,probe-labelled cysteine peptide fold change,[5]; 10 µM,-0.345
same,probe-labelled cysteine peptide fold change,[5]; 50 µM,-0.383
same,probe-labelled cysteine peptide fold change,SLTM_Q9NWH9_441_CIAHLHR; 10 µM,0.124
same,probe-labelled cysteine peptide fold change,SLTM_Q9NWH9_441_CIAHLHR; 50 µM,0.143

# Some of the entries so far, bar-delimited:
structure (smiles) | measurement | setting | value
CC1Cc2ccccc2N1C(=O)C1CCCN(C(=O)CCl)C1 (mixture of isomers) [TRIM25 ligand 11 (diastereomer mixture)] | probe-labelled cysteine peptide fold change | [4]; 10 µM | -0.103
same | probe-labelled cysteine peptide fold change | SLTM_Q9NWH9_441_CIAHLHR; 50 µM | 0.143
